These are yes or no findings as the source states them, for the method shown. Binding seen in cells or lysates may run through a third protein. Some binding calls cover weakened binding; strength is not graded here.
Biological target: HIF1α (human (endogenous in 8505C and C643)) (UniProt Q16665)
Test: co-IP; cell lysates of 8505C or C643 cells under hypoxia incubated with antibodies against target proteins or IgG at 4 °C for 3 h, protein A/G-agarose beads at 4 °C overnight, washed with RIPA buffer, western blot; treatments of the cells: Dox-induced TET1, 20 μM LY294002 for 24 h, TET1 knockout (sgTET1) against sgCon, MG132 (p300 co-IP)

The chains behind the UniProt entries cited, without tags or fusion partners. Where a name states a change or a piece, a line headed by the entry shows the natural chain unless it says otherwise. A line that says so, or that is headed by a name, gives the form on record, which may keep a tag or linker.
UniProt Q16665: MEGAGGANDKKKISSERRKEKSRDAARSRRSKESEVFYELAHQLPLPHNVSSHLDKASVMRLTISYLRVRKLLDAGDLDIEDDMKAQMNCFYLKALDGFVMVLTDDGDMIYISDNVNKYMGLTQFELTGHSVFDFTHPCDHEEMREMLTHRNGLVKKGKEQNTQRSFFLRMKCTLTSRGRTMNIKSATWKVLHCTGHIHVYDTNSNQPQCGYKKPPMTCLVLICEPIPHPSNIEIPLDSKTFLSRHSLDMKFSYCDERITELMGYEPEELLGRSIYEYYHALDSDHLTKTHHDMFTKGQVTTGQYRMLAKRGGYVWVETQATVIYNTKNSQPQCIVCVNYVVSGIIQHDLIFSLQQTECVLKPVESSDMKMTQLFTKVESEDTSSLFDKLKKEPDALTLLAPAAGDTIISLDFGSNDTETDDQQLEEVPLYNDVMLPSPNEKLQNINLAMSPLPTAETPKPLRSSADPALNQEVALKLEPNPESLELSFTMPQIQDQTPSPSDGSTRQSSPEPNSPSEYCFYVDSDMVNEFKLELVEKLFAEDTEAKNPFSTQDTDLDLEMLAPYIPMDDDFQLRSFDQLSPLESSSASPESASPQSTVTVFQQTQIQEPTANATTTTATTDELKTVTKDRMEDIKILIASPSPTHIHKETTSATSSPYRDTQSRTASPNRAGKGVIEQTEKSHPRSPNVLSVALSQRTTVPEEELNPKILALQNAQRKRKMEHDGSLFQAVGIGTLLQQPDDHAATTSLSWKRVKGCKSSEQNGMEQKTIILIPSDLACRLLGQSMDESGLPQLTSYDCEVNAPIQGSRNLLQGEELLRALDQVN
FBW7γ (Q969H0-4, form named): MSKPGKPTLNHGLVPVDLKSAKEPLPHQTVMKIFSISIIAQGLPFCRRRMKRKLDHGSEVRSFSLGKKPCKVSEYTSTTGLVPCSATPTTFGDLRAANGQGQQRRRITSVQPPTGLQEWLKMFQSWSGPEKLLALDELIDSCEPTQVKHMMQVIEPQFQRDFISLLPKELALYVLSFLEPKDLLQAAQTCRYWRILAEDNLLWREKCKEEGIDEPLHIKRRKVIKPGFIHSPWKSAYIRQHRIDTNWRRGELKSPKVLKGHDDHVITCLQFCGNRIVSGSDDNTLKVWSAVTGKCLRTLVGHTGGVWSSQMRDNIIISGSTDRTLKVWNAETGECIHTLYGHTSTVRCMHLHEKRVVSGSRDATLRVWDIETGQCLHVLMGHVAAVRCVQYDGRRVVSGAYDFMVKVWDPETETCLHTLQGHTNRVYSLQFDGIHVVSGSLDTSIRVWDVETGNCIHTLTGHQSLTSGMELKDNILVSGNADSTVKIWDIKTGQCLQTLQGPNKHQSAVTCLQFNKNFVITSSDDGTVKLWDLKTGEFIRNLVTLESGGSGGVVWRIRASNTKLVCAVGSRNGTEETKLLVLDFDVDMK

Q: With FBW7γ (from UniProt Q969H0-4 1-589) as the substance, how does the binding read?
A: Its binding is “binds”.
